Experimental findings from paper PMC12775136 are described below.

For the experiment, the target named is UPF2sΔAL (human). Nature of the experiment: SEC; analytical SEC, Superdex 200 Increase 3.2/300; 1000 pmol of 3′hExo and 2000 pmol of UPF2-AL; overnight at 4 °C; 20 mM HEPES pH 7.5, 75 mM NaCl, 5% glycerol, 1 mM MgCl2, 2 mM DTT; both purified.

Results are given in words; binding and its absence hold for the method and conditions named.

B1: 3′hExofl (enzyme, UniProt Q8IV48 1-349)
chain: MEDPQSKEPAGEAVALALLESPRPEGGEEPPRPSPEETQQCKFDGQETKGSKFITSSASDFSDPVYKEIAITNGCINRMSKEELRAKLSEFKLETRGVKDVLKKRLKNYYKKQKLMLKESNFADSYYDYICIIDFEATCEEGNPPEFVHEIIEFPVVLLNTHTLEIEDTFQQYVRPEINTQLSDFCISLTGITQDQVDRADTFPQVLKKVIDWMKLKELGTKYKYSLLTDGSWDMSKFLNIQCQLSRLKYPPFAKKWINIRKSYGNFYKVPRSQTKLTIMLEKLGMDYDGRPHCGLDDSKNIARIAVRMLQDGCELRINEKMHAGQLMSVSSSLPIEGTPPPQMPHFRK
Consider B1, for which the binding result is recorded as “no binding”.
